Here are results for 1 sequence from PMC10482247.

This series addresses T1, HA-SlSEP3 (UniProt A0ABM1GS83).
T1 sequence (looked up, limits assumed): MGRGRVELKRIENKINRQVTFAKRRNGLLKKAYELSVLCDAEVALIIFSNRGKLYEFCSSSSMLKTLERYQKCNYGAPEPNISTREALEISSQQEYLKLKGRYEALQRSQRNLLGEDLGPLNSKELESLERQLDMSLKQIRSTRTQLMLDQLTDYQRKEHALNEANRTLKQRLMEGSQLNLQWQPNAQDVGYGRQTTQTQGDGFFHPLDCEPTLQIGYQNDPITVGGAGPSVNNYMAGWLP
Nature of the series: EMSA. The note with it: Beyotime chemiluminescent EMSA kit GS009; protein stored in 1x PBS; binding buffer, pH and temperature not given; protein in a lysate after overexpression.

For at least one entry, the source does not settle the construct or the ends of the probe. At least one result comes from cells or an extract, where the contact may be indirect. Where a protein sequence is shown, tags need not be part of it.

Turning to “ATGATGTTTACTAATTGG (double strand) [wild-type lc CArG probe (F/R)]”, the binding result is “binds”.
